Assay results published in the supplement of paper PMC11098740.
The other results are listed elsewhere or left out. Single values are uncertain, as repeats are few or missing.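 Test system: a mixed pool of 41 HAP1 clones in which 61 cancer-associated proteins carry fluorescent tags inserted into introns, and each clone is identified from its image pattern. Read-outs are compared with DMSO-treated control wells. The BRD4 degrader dBET6 served as the positive control.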

Amino acid sequences for entries named in this document (tags omitted).
UniProt O14980, whole entry: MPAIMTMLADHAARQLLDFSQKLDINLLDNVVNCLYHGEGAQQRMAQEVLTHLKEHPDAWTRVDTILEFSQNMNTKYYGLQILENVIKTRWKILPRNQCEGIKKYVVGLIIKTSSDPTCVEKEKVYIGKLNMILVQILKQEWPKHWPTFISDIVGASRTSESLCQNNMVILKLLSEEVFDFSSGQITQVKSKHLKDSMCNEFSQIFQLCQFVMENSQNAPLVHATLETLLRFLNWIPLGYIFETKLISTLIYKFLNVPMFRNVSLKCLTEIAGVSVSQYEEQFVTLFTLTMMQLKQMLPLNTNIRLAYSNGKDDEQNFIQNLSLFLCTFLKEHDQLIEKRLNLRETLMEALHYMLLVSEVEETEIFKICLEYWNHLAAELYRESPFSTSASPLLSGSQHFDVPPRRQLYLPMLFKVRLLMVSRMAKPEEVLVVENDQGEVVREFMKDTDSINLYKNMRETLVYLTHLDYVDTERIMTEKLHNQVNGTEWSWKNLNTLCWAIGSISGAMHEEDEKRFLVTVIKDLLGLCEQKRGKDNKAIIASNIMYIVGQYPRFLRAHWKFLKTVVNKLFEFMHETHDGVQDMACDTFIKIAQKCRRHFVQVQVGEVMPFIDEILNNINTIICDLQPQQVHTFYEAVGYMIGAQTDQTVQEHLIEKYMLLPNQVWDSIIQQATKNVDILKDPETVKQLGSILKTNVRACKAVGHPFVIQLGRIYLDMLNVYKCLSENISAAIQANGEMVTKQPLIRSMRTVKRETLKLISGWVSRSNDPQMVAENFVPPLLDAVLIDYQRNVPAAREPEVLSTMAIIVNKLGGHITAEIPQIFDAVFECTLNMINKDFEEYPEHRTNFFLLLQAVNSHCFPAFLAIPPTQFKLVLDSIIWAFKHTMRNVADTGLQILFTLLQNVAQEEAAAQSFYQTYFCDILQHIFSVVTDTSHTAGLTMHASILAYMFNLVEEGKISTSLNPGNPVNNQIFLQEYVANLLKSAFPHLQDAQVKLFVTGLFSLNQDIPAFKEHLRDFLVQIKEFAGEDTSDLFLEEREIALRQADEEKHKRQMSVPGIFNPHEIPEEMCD

What follows are molecules tested against XPO1 (intron 15 mScarlet tag, HAP1) (UniProt O14980) (assay: XPO1 fluorescence intensity change vs DMSO (log2 fold change); higher = more XPO1 protein). Conditions: 6 h.
With `O=C(NCCc1cccc(Cl)c1)C1CCCN(C(=O)c2ccc(F)cc2)C1` (stereo not given) (10 µM) the “XPO1 fluorescence intensity change (log2)” value was 0.0681. In the case of `NC(=O)c1cn(Cc2c(F)cccc2F)nn1` [Rufinamide] (10 µM), the “XPO1 fluorescence intensity change (log2)” value is reported as 0.0406. `O=C(c1ccc(CS(=O)(=O)c2ccccc2)o1)N1CCc2ccc(O)cc2C1` (0.1 µM) was tested, and the “XPO1 fluorescence intensity change (log2)” value was 0.0267. For `COC(=O)C1=C(C)N(c2ccccc2OC)C(=S)NC1c1ccc(OC)c(O)c1` (stereo not given) (10 µM), the “XPO1 fluorescence intensity change (log2)” value was 0.216. `Cc1cc(COC(=O)c2sc(NC(=O)c3ccco3)cc2C)on1` (10 µM) was tested, and the “XPO1 fluorescence intensity change (log2)” value was -0.0327. `CSCCC(=O)Nc1ccc(Oc2ccccc2Cl)cc1` (10 µM) was tested, and the “XPO1 fluorescence intensity change (log2)” value was -0.01. In the case of `N#CC(C#N)=C1C=CC=CN1/C(=C/c1ccc(F)cc1)C(=O)c1cccs1` (0.1 µM), the “XPO1 fluorescence intensity change (log2)” value is reported as 0.0285. In the case of `COCc1ccc(C(=O)Nc2cc(C)ccn2)cc1` (1 µM), the “XPO1 fluorescence intensity change (log2)” value is reported as 0.104. For `O=c1[nH]cc(F)c(=O)[nH]1` [5-Fluorouracil] (20 µM), the “XPO1 fluorescence intensity change (log2)” value was -0.0643. In the case of `O=C(/C=C/c1ccccc1)c1ccc(O)c(CCCl)c1` (10 µM), the “XPO1 fluorescence intensity change (log2)” value is reported as -0.262. `Cc1ccc(Cc2cnc(NC(=O)CCc3ccco3)s2)cc1Cl` (1 µM) was tested, and the “XPO1 fluorescence intensity change (log2)” value was 0.37. In the case of `Cc1ccc(C(C)C)c(OCC(=O)Nc2nc(C)c(C)s2)c1` (10 µM), the “XPO1 fluorescence intensity change (log2)” value is reported as -0.129. In the case of `Cc1cccc(-n2ccnc2SCC(=O)Nc2sccc2C(N)=O)c1C` (1 µM), the “XPO1 fluorescence intensity change (log2)” value is reported as -0.039. In the case of `CC(=O)NCCc1nc2ccccc2n1CCCOc1cccc2ccccc12` (1 µM), the “XPO1 fluorescence intensity change (log2)” value is reported as -0.102. For `Cc1nc(-c2ccc(OCC(C)C)c(C#N)c2)sc1C(=O)O` [Febuxostat] (10 µM), the “XPO1 fluorescence intensity change (log2)” value was -0.000336. For `O=C(Nc1cccc(C(F)(F)F)c1)c1ccccc1O` (10 µM), the “XPO1 fluorescence intensity change (log2)” value was -0.192. With `O=C(Nc1ccc(Oc2cccc(F)c2)cc1)N1CCc2ccccc2C1` (10 µM) the “XPO1 fluorescence intensity change (log2)” value was -0.0139. For `CC1CN(c2ccc(C(=O)Nc3cc(Cl)cc(Cl)c3)cn2)CC(C)O1` (stereo not given) (10 µM), the “XPO1 fluorescence intensity change (log2)” value was 0.11. For `Cc1nc2ccc(C(=O)N(C)Cc3ccccc3OC(F)(F)F)cc2nc1C` (10 µM), the “XPO1 fluorescence intensity change (log2)” value was 0.0452. In the case of `Cn1cnnc1NC(=O)c1cc2c(s1)-c1ccccc1CC2` (10 µM), the “XPO1 fluorescence intensity change (log2)” value is reported as 0.0892. `O=C1CCC(N2C(=O)c3ccccc3C2=O)C(=O)N1` (stereo not given) [Thalidomide] (9.40275 µM) was tested, and the “XPO1 fluorescence intensity change (log2)” value was -0.129. For `CCC(CC)O[C@@H]1C=C(C(=O)O)C[C@H](N)[C@H]1NC(C)=O` [Oseltamivir Acid] (10 µM), the “XPO1 fluorescence intensity change (log2)” value was 0.152. With `CC1CNc2c(cccc2S(=O)(=O)N[C@@H](CCCNC(=N)N)C(=O)N2CC[C@@H](C)C[C@@H]2C(=O)O)C1` (stereo not given in full) [Argatroban] (10.0004 µM) the “XPO1 fluorescence intensity change (log2)” value was 0.0408. With `NC(=O)Nc1cc(-c2cccc(F)c2)sc1C(=O)N[C@H]1CCCNC1` (20 µM) the “XPO1 fluorescence intensity change (log2)” value was 0.208. With `Cc1ccc2sc(/C=C/c3cccnc3)nc2c1` (10 µM) the “XPO1 fluorescence intensity change (log2)” value was -0.0992.

Each molecule was assayed against BRD4 (intron 10 mScarlet tag, HAP1) (UniProt O60885) (assay: BRD4 median nuclear fluorescence intensity change vs DMSO (log2 fold change); higher = more BRD4 protein). Conditions: 6 h.
In the case of `N#CC(C#N)=C1C=CC=CN1/C(=C/c1ccccc1)C(=O)c1cccs1` (10 µM), the “BRD4 median nuclear fluorescence intensity change (log2)” value is reported as 0.0206. In the case of `O=C(CCNC(=O)c1cnccn1)Nc1nc(-c2ccccc2Cl)c(-c2ccccc2Cl)s1` (10 µM), the “BRD4 median nuclear fluorescence intensity change (log2)” value is reported as 0.00564. With `COc1ccccc1CC(=O)N1CCCN(C)c2nc3ccccc3nc21` (10 µM) the “BRD4 median nuclear fluorescence intensity change (log2)” value was 0.197. For `O=C(Cc1ccc(-n2cccn2)cc1)Nc1ccc2oc(=O)[nH]c2c1` (10 µM), the “BRD4 median nuclear fluorescence intensity change (log2)” value was 0.156. For `Cc1ccoc1C(=O)Nc1ccc2c(c1)CCN2C(=O)c1ccoc1` (10 µM), the “BRD4 median nuclear fluorescence intensity change (log2)” value was -0.0276. `COc1ccc2nc(C)cc(Sc3nnnn3C)c2c1` (10 µM) was tested, and the “BRD4 median nuclear fluorescence intensity change (log2)” value was -0.0188. `O=C(COc1ccccc1)Nc1ncc(Cc2cccc(C(F)(F)F)c2)s1` (10 µM) was tested, and the “BRD4 median nuclear fluorescence intensity change (log2)” value was 0.0551. For `COc1cccc2c1N(CC(=O)Nc1ccc3c(c1)CCN3C(C)=O)CCC2` (10 µM), the “BRD4 median nuclear fluorescence intensity change (log2)” value was -0.0612. For `C/C=C/c1cc(C(=O)N2CCC(C)Sc3ccccc32)cc(OC)c1OC` (stereo not given) (0.1 µM), the “BRD4 median nuclear fluorescence intensity change (log2)” value was 0.00327. For `Cc1ccccc1OCCOC(=O)c1cc(C)c(C)c(S(N)(=O)=O)c1` (10 µM), the “BRD4 median nuclear fluorescence intensity change (log2)” value was -0.113. `CCOC(CCl)/S(=N\S(=O)(=O)c1ccc(C)cc1)c1ccccc1[N+](=O)[O-]` (stereo not given) (10 µM) was tested, and the “BRD4 median nuclear fluorescence intensity change (log2)” value was 0.00314. In the case of `O=C(NCCc1cccc(Cl)c1)C1CCCN(C(=O)c2ccc(F)cc2)C1` (stereo not given) (10 µM), the “BRD4 median nuclear fluorescence intensity change (log2)” value is reported as 0.216. `O=C(c1ccc(CS(=O)(=O)c2ccccc2)o1)N1CCc2ccc(O)cc2C1` (0.1 µM) was tested, and the “BRD4 median nuclear fluorescence intensity change (log2)” value was 0.175. With `COC(=O)C1=C(C)N(c2ccccc2OC)C(=S)NC1c1ccc(OC)c(O)c1` (stereo not given) (10 µM) the “BRD4 median nuclear fluorescence intensity change (log2)” value was 0.091. `Cc1cc(COC(=O)c2sc(NC(=O)c3ccco3)cc2C)on1` (10 µM) was tested, and the “BRD4 median nuclear fluorescence intensity change (log2)” value was 0.0299. In the case of `CSCCC(=O)Nc1ccc(Oc2ccccc2Cl)cc1` (10 µM), the “BRD4 median nuclear fluorescence intensity change (log2)” value is reported as 0.0376. `N#CC(C#N)=C1C=CC=CN1/C(=C/c1ccc(F)cc1)C(=O)c1cccs1` (0.1 µM) was tested, and the “BRD4 median nuclear fluorescence intensity change (log2)” value was 0.0322. In the case of `COCc1ccc(C(=O)Nc2cc(C)ccn2)cc1` (1 µM), the “BRD4 median nuclear fluorescence intensity change (log2)” value is reported as -0.0153. With `O=C(/C=C/c1ccccc1)c1ccc(O)c(CCCl)c1` (10 µM) the “BRD4 median nuclear fluorescence intensity change (log2)” value was -0.048. With `Cc1ccc(Cc2cnc(NC(=O)CCc3ccco3)s2)cc1Cl` (1 µM) the “BRD4 median nuclear fluorescence intensity change (log2)” value was 0.0894. In the case of `Cc1ccc(C(C)C)c(OCC(=O)Nc2nc(C)c(C)s2)c1` (10 µM), the “BRD4 median nuclear fluorescence intensity change (log2)” value is reported as -0.0882. In the case of `Cc1cccc(-n2ccnc2SCC(=O)Nc2sccc2C(N)=O)c1C` (1 µM), the “BRD4 median nuclear fluorescence intensity change (log2)” value is reported as -0.0656. For `CC(=O)NCCc1nc2ccccc2n1CCCOc1cccc2ccccc12` (1 µM), the “BRD4 median nuclear fluorescence intensity change (log2)” value was 0.127. `O=C(Nc1cccc(C(F)(F)F)c1)c1ccccc1O` (10 µM) was tested, and the “BRD4 median nuclear fluorescence intensity change (log2)” value was 0.0764. For `O=C(Nc1ccc(Oc2cccc(F)c2)cc1)N1CCc2ccccc2C1` (10 µM), the “BRD4 median nuclear fluorescence intensity change (log2)” value was 0.00187. For `CC1CN(c2ccc(C(=O)Nc3cc(Cl)cc(Cl)c3)cn2)CC(C)O1` (stereo not given) (10 µM), the “BRD4 median nuclear fluorescence intensity change (log2)” value was 0.244. For `Cc1nc2ccc(C(=O)N(C)Cc3ccccc3OC(F)(F)F)cc2nc1C` (10 µM), the “BRD4 median nuclear fluorescence intensity change (log2)” value was 0.14. For `Cn1cnnc1NC(=O)c1cc2c(s1)-c1ccccc1CC2` (10 µM), the “BRD4 median nuclear fluorescence intensity change (log2)” value was 0.0454. For `NC(=O)Nc1cc(-c2cccc(F)c2)sc1C(=O)N[C@H]1CCCNC1` (20 µM), the “BRD4 median nuclear fluorescence intensity change (log2)” value was 0.0649. For `Cc1ccc2sc(/C=C/c3cccnc3)nc2c1` (10 µM), the “BRD4 median nuclear fluorescence intensity change (log2)” value was 0.0997.
